# Out of some 320,000 compounds screened, about 2,100 (0.66%) were called active. Inconclusive results, whose numbers are uncertain, are shown with a selection of clear calls. Calls follow the shape of the dose curve; as a rule, active = well fitted inhibition curve with a large enough effect in the signal ratio, with a control signal flat (not every such curve was filed as active); inconclusive = small, poorly fitted or top-dose-only effect, or effect the other way, or a change in a side signal; inactive = flat fitted curve, though single readings scatter; the % refers to the signal ratio. Potencies of inconclusive entries are doubtful fits and often do not repeat.
# Assay: qHTS Assay for Lipid Storage Modulators in Drosophila S3 Cells
# Details: BODIPY lipid droplet fluorescence, 18-24 h, cells fed with added oleic acid; lipid storage change, negative = inhibition: at 46.1 µM (top of the series) unless noted
# How it was run: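 Drosophila S3 cells loaded with oleic acid (400 uM, as added) and compounds at several concentrations; lipid droplets imaged by 488-nm laser-scanning cytometry, 500–530 nm intensity and object ratio to cell channel. Percent activity normalized to 20 uM Triacsin C.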
# % is scaled to controls: 0 for no effect and ±100 for the full control effect; potency is read from the fitted curve at half-maximal effect.
Structure (SMILES),Potency,"lipid storage change, negative = inhibition",outcome
CC1CC(C)CN(CCCNC(=O)c2ccc(CNS(=O)(=O)c3ccc(F)cc3)cc2)C1 (centres undefined),"inconclusive: 29.1 µM [activator, single point]",–,–
C=CCSC1=C(C#N)C2(CCCCC2)C(C#N)C(=O)N1 (centres undefined),"inconclusive: 5.17 µM [activator, single point]",–,–
COc1ccc(N2C(=O)C3CCCN3C2c2ccccc2)cc1 (centres undefined),–,inconclusive: -5.4%,–
COC1CCCCC1NS(=O)(=O)c1ccc(Cl)cc1 (centres undefined),"inconclusive: 5.8 µM [falling, partial curve]",–,–
CCc1ccc(/C=C2/SC(=S)N(CCC(=O)Nc3cccnc3)C2=O)cc1,–,inconclusive: 114%,–
Clc1cccc(Cl)c1CNc1ccc(N2CCCC2)cc1,–,inconclusive: -32% [at 0.369 µM],–
Nc1ccc2nc(SCC(=O)c3ccccc3)sc2c1,"inconclusive: 3.26 µM [activator, full curve]",–,–
CCc1ccc(C2=Nn3c(nnc3-c3cccs3)SC2)cc1,–,inconclusive: -42.2%,–
CC(C)Cn1cnc2c1c(=O)n(CC(=O)N(C)C)c(=O)n2Cc1ccccc1,–,inconclusive: 7.27%,–
Cc1cnc(C(=O)NC2CC(C)(C)Cc3c2cnn3-c2cccc(F)c2)cn1 (centres undefined),–,inconclusive: -19.2%,–
O=C(NCCC1=CCCCC1)C1CCN(c2nnc(-n3cccc3)s2)CC1,"inconclusive: 11.6 µM [cytotoxic, partial curve]",–,–
CC1(NC(=O)c2ccccc2)CCN(CCc2cccs2)C1=O (centres undefined),–,inconclusive: 89.5%,–
CCN(CC)C(=S)SCC(=O)Nc1nc(=O)c2ccccc2s1,–,inconclusive: 24.5%,–
O=C(c1ccccc1)c1ccc(-n2cnnc2)c([N+](=O)[O-])c1,"inconclusive: 0.082 µM [falling, full curve, poor fit]",–,–
COc1ccc(NC(=O)NNC(=O)c2cc(C3CC3)nc3ccccc23)c(OC)c1,–,inconclusive: 90.7%,–
O=C(O)c1ccc(CN2C(=O)c3ccc(Oc4ccc([N+](=O)[O-])cc4)cc3C2=O)cc1,"inconclusive: 0.164 µM [falling, full curve, poor fit]",–,–
COc1cc(CN(C)Cc2cc(=O)oc3cc(C)c(Cl)cc23)ccc1OC(F)F,"inconclusive: 7.31 µM [falling, single point]",–,–
Cc1ccc2cc(CN(C(=O)c3cccs3)c3ccccc3)c(=O)[nH]c2c1,–,inconclusive: 2.83%,–
COc1cccc(NC(=S)NCCN2CCOCC2)c1,"inconclusive: 0.291 µM [falling, full curve, poor fit]",–,–
CC(=O)c1cnc2nc(C)nn2c1C,–,inconclusive: -1.66%,–
CCOC(=O)c1cnc2cc(C)ccn2c1=O,–,inconclusive: 9.27%,–
Cc1ccc(NC(=O)Nn2cnnc2)cc1,–,inconclusive: -100%,–
Cc1cnn(CCC(=O)NNC(=S)NCC(C)C)c1,–,inconclusive: -53.2%,–
CCn1c(C)c2c([n+]1CC)CC(C)(C)CC2=O,"inconclusive: 29.1 µM [falling, single point]",–,–
COc1ccccc1Nc1cc(C)nc(Nc2ccccc2OC)n1,–,inconclusive: -88.1%,–
COc1ccc(N(CC(=O)NC(C)c2ccccc2)S(=O)(=O)c2ccc(C)cc2)cc1 (centres undefined),–,inconclusive: -109%,–
COc1cccc(-c2nn(C)c3sc(C(=O)N4CCN(c5ccccc5)CC4)cc23)c1,"inconclusive: 0.517 µM [activator, full curve]",–,–

Structure (SMILES),Potency,"lipid storage change, negative = inhibition",outcome
CN(C)c1ccc(/C=C/C(=O)c2cc(Cl)ccc2O)cc1,active: 4.11 µM,–,–
Cc1cc(OCC(=O)OCC(=O)c2ccc[nH]2)ccc1Cl,–,inconclusive,–
CCc1nc2ccc(C(=O)Nc3ccc(NC(C)=O)cc3)cc2nc1CC,–,inconclusive: 4.12%,–
Nc1cc(N)nc(SCc2cc(=O)oc3cc4c(cc23)CCC4)n1,"inconclusive: 2.06 µM [activator, partial curve]",–,–
Cc1c(C=O)c(Cl)n(C)c(=O)c1C#N,–,inconclusive: -84.1%,–
C/C(=N\NC(=O)c1nn(C)c(C)c1Br)c1ccc(NC(=O)C2CCCC2)cc1,–,–,inactive [at 46.1 µM]
COc1cc(C(=O)NCC2CCCO2)ccc1OCc1ccccc1 (centres undefined),–,inconclusive: -31.5%,–
COc1cccc(NC(=O)COc2ccc(C(=S)N3CCN(C)CC3)cc2OC)c1,active: 8.2 µM,–,–
CCN(CC)c1ccc(S(=O)(=O)N2CCCCC2)cc1NC(=O)CN1C(=O)NC2(CCCC2)C1=O,–,inconclusive,–
Cc1c(NC(=O)CN2CCCc3ccccc32)c(=O)n(-c2ccccc2)n1C,"inconclusive: 0.0046 µM [activator, full curve, poor fit]",–,–
O=C(NCCN1CCOCC1)Nc1ccccc1,–,inconclusive: -27.9%,–
NC(=O)CN1C(=O)C(=O)N(Cc2cccc(Cl)c2)C1=O,–,inconclusive: 14.6%,–
CN(C)C(CNC(=O)c1ccc(NS(=O)(=O)c2cccc([N+](=O)[O-])c2)cc1)c1ccco1 (centres undefined),–,inconclusive: -18.7%,–
O=C(Cc1ccc(Cl)cc1)NCCc1cnc[nH]1,–,inconclusive: 21%,–
CCC(C(=O)OC(C)C(=O)Nc1ccc(Cl)cn1)c1ccccc1 (centres undefined),–,inconclusive: 32.8%,–
O=C(CSc1nnc(Nc2ccccc2)s1)NCCN1C(=O)CSC1=O,"inconclusive: 18.4 µM [falling, partial curve]",–,–
C(=N\n1cnnc1)/c1ccccc1OCCOc1ccccc1,–,inconclusive: 21.9%,–
Cc1ccc2c(COC(=O)c3n[nH]c4ccccc34)cc(=O)oc2c1,–,inconclusive: 40.7%,–
COc1cc2c(cc1OC)C(c1cc3cccc(C)c3[nH]c1=O)N(C(=O)c1ccco1)CC2 (centres undefined),–,inconclusive: -24.9%,–
Cc1cccc(NC(=O)CSc2nc3ccccc3nc2N2CCCC2)c1,–,inconclusive: -25.5%,–
Cc1ccc(N2C(=O)CS(=O)(=O)CC2=O)cc1,–,inconclusive: -28.6% [at 9.22 µM],–
NC(=O)COC(=O)CSc1cccc2cccc(Cl)c12,–,inconclusive: 43.4%,–
CC1(C)CC(N2CCN(C(c3ccccc3)c3ccccc3)CC2)=CC(=[N+]2CCCCC2)C1,active: 2.06 µM,–,–
CC(C)c1ccc(CN2CC(C(=O)O)CC2=O)cc1 (centres undefined),"inconclusive: 29.1 µM [cytotoxic, single point]",–,–
O=C(O)c1ccc(C=C(c2nc3ccccc3s2)c2nc3ccccc3s2)cc1,"inconclusive: 6.51 µM [falling, single point]",–,–
O=C(Nc1ccc(C(=O)O)cc1)/C(=C\c1ccccc1)NC(=O)c1ccco1,"inconclusive: 29.1 µM [activator, single point]",–,–
CCOC(=O)c1cnc2c(C)c(C)ccc2c1NCCN1CCOCC1,–,inconclusive: -41.1%,–

# Some of these compounds in order of length of the SMILES, smallest number first.
Structure (SMILES),Potency,"lipid storage change, negative = inhibition",outcome
O=C(Cc1ccc(Cl)cc1)NCCc1cnc[nH]1,–,inconclusive: 21%,–
Cc1c(NC(=O)CN2CCCc3ccccc32)c(=O)n(-c2ccccc2)n1C,"inconclusive: 0.0046 µM [activator, full curve, poor fit]",–,–
CCN(CC)c1ccc(S(=O)(=O)N2CCCCC2)cc1NC(=O)CN1C(=O)NC2(CCCC2)C1=O,–,inconclusive,–

# Carrying on:

Structure (SMILES),Potency,"lipid storage change, negative = inhibition",outcome
O=c1c2[nH]c3ccc(F)cc3c2ncn1CCCN1CCOCC1,–,inconclusive: 73.1%,–
CCCCNCCOCCOc1ccc(F)cc1,–,inconclusive: -24.3%,–
CN(C)S(=O)(=O)c1cccc(NC(=S)N/N=C/c2cc(Br)ccc2O)c1,–,inconclusive: -31.3%,–
Cc1c(C(=O)NCC2CCCO2)oc2ccc(S(=O)(=O)N3CC(C)CC(C)C3)cc12 (centres undefined),–,inactive: 16.1% [at 9.22 µM],–
Cc1cc(=O)n2[nH]c(=O)c(N=Nc3ccccc3)c2[nH]1,–,inconclusive: 18.3%,–
CC(=O)Nc1ccc(S(=O)(=O)N2CCC(n3cnc4cc(F)ccc43)CC2)cc1,–,inconclusive: 11.4%,–
Cc1cccc(Nc2nnc(SCC(=O)NCc3cccs3)s2)c1,–,inconclusive: -49%,–
Cc1ccc(C)c(NC(=O)CN(C)C(=O)c2cccc(-n3cccc3)c2)c1,"inconclusive: 2.31 µM [activator, full curve]",–,–
O=C(NCc1ccco1)/C(=C\c1cccc([N+](=O)[O-])c1)NC(=O)c1ccco1,–,inconclusive: 90.8%,–
CSc1ccc(/C=C(/NC(=O)c2ccccc2)C(=O)N2CCN(C)CC2)cc1,–,inconclusive: 6.4%,–
CC(=O)Oc1ccc(N2C(=O)CCC2=O)cc1,–,inconclusive: 39.2%,–
C#CCn1ccc(O)c(Cc2ccccc2)c1=O,–,inconclusive: 4.77%,–
CC(C)[C@H](N[C@@H](C)c1ccccc1)c1c(O)ccc2ccccc12,–,inconclusive: 36%,–
COC(=O)CNC(=O)COC(=O)Cc1ccc(Cl)cc1,"inconclusive: 29.1 µM [falling, single point]",–,–
CCCCCCSc1nsc(NC(=O)CCC)n1,"inconclusive: 3.66 µM [falling, full curve]",–,–
COc1cccc(C2CC(=O)Nc3cc(OC)c(OC)c(OC)c32)c1OC (centres undefined),–,inconclusive: 11.2%,–
CC1CCCC(NC(=O)C2CCN(S(=O)(=O)N3CCCCC3)CC2)C1C (centres undefined),–,inconclusive: -10.6%,–
CC(C)CNC(=O)C1CCN(S(=O)(=O)c2ccc(-n3cnnn3)cc2)CC1,–,inconclusive: 18.7%,–
O=C(C1COc2ccccc2O1)N1CCN(Cc2ccc3c(c2)OCO3)CC1 (centres undefined),"inconclusive: 20.6 µM [rising, partial curve]",–,–
COc1cc(/C=N/Nc2nc(C)cc(C)n2)cc(OC)c1OC,–,inconclusive: 110%,–
Cc1ccc(N2Cc3ccccc3C2=O)cc1,"inconclusive: 20.6 µM [falling, single point]",–,–
CCOC(=O)C(=O)c1cn(C2OCC(OC(C)=O)C(OC(C)=O)C2OC(C)=O)c2ccccc12 (centres undefined),"inconclusive: 0.82 µM [falling, single point]",–,–
O=C1C2C3CCC(C3)C2C(=O)N1c1ccc2ccccc2c1 (centres undefined),"inconclusive: 23.1 µM [activator, single point]",–,–
Cc1c(Cl)cccc1-n1c(SCC(=O)NCc2cccs2)nnc1-c1ccncc1,–,inconclusive: 68.2%,–
COc1ccc(S(=O)(=O)NCc2cccnc2)c2ccccc12,–,inconclusive: -15.7%,–
